Here are results for 56 substances from patent publication US20240368668A1, “SUBSTRATES AND BIOMARKERS OF ADAMTS7” (The Broad Institute, Inc., priority 2021, published 2024).

The subject of the first data set is mouse ADAMTS7. Kind of data set: TMT10 TAILS N-terminomics, SMC1 experiment (Ad-mADAMTS7 WT vs EQ vs Luc, technical replicates, trypsin digest). It is filed as cell-based. Conditions: TAILS N-terminal peptide identified in SMC conditioned media (scale-up, fractions), mouse ADAMTS7; value listed per TAILS_id (protein_StartAA). An excerpt:
ADAMTS7 Expression, Cell Culture and Preparation of the Secreted Proteins—Full-length mouse Adamts7 1-1857 (Uniprot Q68SA9, WT or E373Q catalytic mutant) with a carboxyl terminal 3xFLAG tag was used to generate custom adenoviruses as previously described. Adeno-CMV-Luciferase (Ad-Luc) from Vector Biolabs was used as a negative control. Human Coronary Artery Smooth Muscle Cells (HCA-SMC) were obtained from Lonza and expanded in Lonza SmGM-2 media in 15 cm tissue culture plates. Twenty-four hours before media collection, near confluent plates were transduced with 50 MOI adenovirus and switched to Lonza Basal SM media with volumes of 20 ml per 15 cm plate. Expression of the Flag tagged ADAMTS7 was confirmed from the media using western blot and detected using the anti-Flag M2-HRP antibody (Sigma, A8592). Collected media was processed by adding protease inhibitors (1 mM EDTA and 1 mM PMSF) and clarified by 500 g×5 min spin at 4 C to pellet cell debris. Cell media supernatants were then passed through a 0.22 um filter and kept chilled. Processed media was then concentrated 50-100× using 3 kDa Centricon Plus-70 filter unit, spun at 3,500 g×60 min at 4 C. Approximately 10% of the processed, concentrated media was set aside for total secretome proteolytic analysis. The remaining 90% of the processed, concentrated media was buffer exchanged into 50 mM HEPES pH 8.0, 150 mM NaCl (2×50 ml) using the 3 kDa Centricon Plus-70 filter unit and concentrated to >2 mg/ml to serve as input for the TAILS experiment. Secretome and TAILS input samples were stored at −80° C.
For the first experiment, referred to as SMC1, 120 ml of media from 6×15 cm dishes was pooled from each condition (Luc, WT, EQ) and processed to produce three separate inputs for the TAILS experiment. Luc, WT and EQ inputs from the SMC1 experiment were each divided into triplicate 400 ug samples to generate technical replicate TAILS data. For the second experiment, referred to as SMC2, media was processed separately in triplicate for each condition (Luc1, Luc2, Luc3, WT1, WT2, WT3, EQ1, EQ2, EQ3) using 60 ml of media from 3×15 cm dishes for each process replicate. Inputs from the SMC2 experiment used process replicates of 300 ug each to generate TAILS data. The third experiment used input from cultured Human umbilical vein endothelial cells (HUVEC) from Lifeline Cell Technology grown in VascuLife Media and transduced in Lifeline Basal EC (+bFGF2 10 ng/ml). The HUVEC experiment used the same strategy as the SMC2 experiment, with 40 ml of media from 2×15 cm dishes for each process replicate and used 200 ug each to generate TAILS data. Inputs for process replicate experiments were restricted to the lowest concentration from the 9 parallel samples for SMC2 or HUVEC.
TMT10 isotopic labeling and negative selection of non-labeled peptides-Sample preparation was performed based on the TAILS protocol from the Overall lab with some modifications. From a single experiment, nine parallel protein samples in 50 mM HEPES pH 8.0, 150 mM NaCl were separately denatured with guanidinium chloride (Sigma, G4505) to reach a final concentration of 2.5M guanidinium chloride and 250 mM HEPES and incubated at 65° C. for 15 min. Reduction was achieved through addition of tris(2-carboxylethyl) phosphine (TCEP) at a final concentration of […] and incubated at 65° C. for 45 min. Alkylation reaction was performed with addition of iodoacetamide (IAA, Sigma, A3221) to a final concentration of 10 mM IAA for 15 min at room temperature in the dark. Following denaturation, reduction and alkylation steps, ten percent of each of the nine parallel protein samples was removed and combined to serve as a pooled reference. Isobaric tags were added to free amine groups using the TMT10plex Isobaric Mass Tagging Kit (ThermoFisher, 90113) with TMT channels randomly assigned to the nine samples and TMT 131 assigned to the pooled reference. […]
With “HSPG2_4004 (SAEPLALGR; listed as Homo sapiens)”, the TAILS_SMC_Scaleup_fxns_mATS7i was determined as 1.03E+10.

For the substance “HSPG2_4021 (LNKDGSLR; listed as Homo sapiens)”, the TAILS_SMC_Scaleup_fxns_mATS7i was 3.13E+08.

As to “HSPG2_4075 (GCVGEVSVNGKR; listed as Homo sapiens)”, the TAILS_SMC_Scaleup_fxns_mATS7i was 1.79E+09.

For the substance “HSPG2_4133 (DGFKGDLCEHEENPCQLR; listed as Homo sapiens)”, the TAILS_SMC_Scaleup_fxns_mATS7i is recorded as 4.04E+08.

In the case of “HTRA1_33 (LAAGCPDR; listed as Homo sapiens)”, the TAILS_SMC_Scaleup_fxns_mATS7i worked out at 1.00E+08.

On to “IFI30_43 (YKTGNLYLR; listed as Homo sapiens)”, for which the TAILS_SMC_Scaleup_fxns_mATS7i worked out at 6.01E+06.

Substance “IGFBP3_200 (FSSESKR; listed as Homo sapiens)” had a TAILS_SMC_Scaleup_fxns_mATS7i of 3.44E+08.

Turning to “LASP1_123 (HEEFEKSR; listed as Homo sapiens)”, the TAILS_SMC_Scaleup_fxns_mATS7i worked out at 2.34E+07.

“LGALS1_53 (HGDANTIVCNSKDGGAWGTEQR; listed as Homo sapiens)” showed a TAILS_SMC_Scaleup_fxns_mATS7i of 4.04E+08.

“LGALS3BP447 (FQAPSDYR; listed as Homo sapiens)” yielded a TAILS_SMC_Scaleup_fxns_mATS7i of 1.48E+08.

Substance “LOXL2_318 (AYKPEQPLVR; listed as Homo sapiens)” registered a TAILS_SMC_Scaleup_fxns_mATS7i of 7.35E+09.

“LOX_80 (ANASAQQPR; listed as Homo sapiens)” registered a TAILS_SMC_Scaleup_fxns_mATS7i of 8.09E+07.

In the case of “LOX_81 (NASAQQPR; listed as Homo sapiens)”, the TAILS_SMC_Scaleup_fxns_mATS7i amounted to 3.49E+07.

As for “LTBP1_494 (SVQIHQVSR; listed as Homo sapiens)”, the TAILS_SMC_Scaleup_fxns_mATS7i is on record as 1.79E+09.

With “LTBP1_546 (HVYPVAAKTQLGR; listed as Homo sapiens)”, the TAILS_SMC_Scaleup_fxns_mATS7i is listed as 3.09E+08.

The substance “LTBP2_485 (SVQIHQVAQVR; listed as Homo sapiens)” yielded a TAILS_SMC_Scaleup_fxns_mATS7i of 7.57E+08.

In turn, “LTBP2_533 (SGEPPRPLPPAAPR; listed as Homo sapiens)” came in with a TAILS_SMC_Scaleup_fxns_mATS7i of 1.02E+10.

Substance “LTBP2_677 (SLGPGTCTLPLAQR; listed as Homo sapiens)” displayed a TAILS_SMC_Scaleup_fxns_mATS7i of 2.60E+09.

In the case of “LTBP2_760 (SSGALPGPAER; listed as Homo sapiens)”, the TAILS_SMC_Scaleup_fxns_mATS7i is recorded as 1.84E+09.

As for “LTBP2_1023 (GKCTNLEGSFR; listed as Homo sapiens)”, the TAILS_SMC_Scaleup_fxns_mATS7i turned out to be 2.82E+08.

On to “LTBP2_1371 (SGQKGHAPCSSVLGR; listed as Homo sapiens)”, for which the TAILS_SMC_Scaleup_fxns_mATS7i is recorded as 6.28E+08.

With “LTBP2_1560 (TTYTECCCQDGEAWSQQCALCPPR; listed as Homo sapiens)”, the TAILS_SMC_Scaleup_fxns_mATS7i is listed as 7.12E+09.

The substance “LTBP2_1584 (SSEVYAQLCNVAR; listed as Homo sapiens)” displayed a TAILS_SMC_Scaleup_fxns_mATS7i of 3.60E+09.

On to “LTBP2_1602 (EAGVHFR; listed as Homo sapiens)”, for which the TAILS_SMC_Scaleup_fxns_mATS7i is listed as 4.66E+08.

In the case of “MAN2A1_51 (LQEKIDHLER; listed as Homo sapiens)”, the TAILS_SMC_Scaleup_fxns_mATS7i was found to be 7.24E+07.

The substance “MAP1B_1065 (LTTPTKQLGAQSPGR; listed as Homo sapiens)” gave a TAILS_SMC_Scaleup_fxns_mATS7i of 1.61E+07.

“MGAT4B_28 (LSGQKGDVVDVYQR; listed as Homo sapiens)” yielded a TAILS_SMC_Scaleup_fxns_mATS7i of 3.91E+07.

Regarding “MMP1_24 (LETQEQDVDLVQKYLEKYYNLKNDGR; deamidated asparagine; listed as Homo sapiens)”, the TAILS_SMC_Scaleup_fxns_mATS7i was 7.27E+07.

In the case of “NID2_374 (VGGPDLKGQVEPWDER; listed as Homo sapiens)”, the TAILS_SMC_Scaleup_fxns_mATS7i is on record as 1.18E+08.

The substance “NID2_467 (LEDNIGSNTEVFTYNAANKETCEHNHR; listed as Homo sapiens)” had a TAILS_SMC_Scaleup_fxns_mATS7i of 1.69E+08.

In the case of “NUCB1_228 (LKEVWEELDGLDPNR; listed as Homo sapiens)”, the TAILS_SMC_Scaleup_fxns_mATS7i was determined as 1.30E+08.

Substance “OS9_54 (QSQSSDVVIVSSKYKQR; modified N-terminal Gln; listed as Homo sapiens)” gave a TAILS_SMC_Scaleup_fxns_mATS7i of 1.17E+09.

On to “OS9_55 (SQSSDVVIVSSKYKQR; listed as Homo sapiens)”, for which the TAILS_SMC_Scaleup_fxns_mATS7i amounted to 3.03E+08.

As for “PAPPA_41 (AAGPATCATR; listed as Homo sapiens)”, the TAILS_SMC_Scaleup_fxns_mATS7i is 5.38E+07.

Take “PDLIM4_104 (IDPEIQDGSPTTSR; listed as Homo sapiens)”: the TAILS_SMC_Scaleup_fxns_mATS7i is recorded as 2.81E+07.

Substance “POLR3G_88 (LFCSHWSHIPGFK; listed as Homo sapiens)” returned a TAILS_SMC_Scaleup_fxns_mATS7i of 7.00E+07.

In the case of “POSTN_413 (FSDDTLSMDQR; listed as Homo sapiens)”, the TAILS_SMC_Scaleup_fxns_mATS7i is 1.35E+08.

“POSTN_754 (IITGPEIKYTR; listed as Homo sapiens)” registered a TAILS_SMC_Scaleup_fxns_mATS7i of 2.17E+09.

On to “POSTN_790 (FIEGGDGHLFEDEEIKR; listed as Homo sapiens)”, for which the TAILS_SMC_Scaleup_fxns_mATS7i is on record as 1.69E+08.

For the substance “POSTN_807 (LLQGDTPVR; listed as Homo sapiens)”, the TAILS_SMC_Scaleup_fxns_mATS7i is 3.08E+08.

As for “PSAP_171 (FMANIPLLLYPQDGPR; oxidized Met; listed as Homo sapiens)”, the TAILS_SMC_Scaleup_fxns_mATS7i worked out at 1.43E+08.

Regarding “PXDN_1341 (SYQEDKPTKKTR; listed as Homo sapiens)”, the TAILS_SMC_Scaleup_fxns_mATS7i is on record as 1.16E+09.

For “PXDN_1393 (QKTITDLR; listed as Homo sapiens)”, the TAILS_SMC_Scaleup_fxns_mATS7i came out at 8.16E+07.

For the substance “QSOX1_558 (VAAAPELAMGALELESR; listed as Homo sapiens)”, the TAILS_SMC_Scaleup_fxns_mATS7i is 8.63E+08.

Consider “SDC4_106 (LEENEVIPKR; listed as Homo sapiens)”, for which the TAILS_SMC_Scaleup_fxns_mATS7i turned out to be 1.76E+08.

Still in this data set, the particulars now being: TAILS N-terminal peptide signal, SMC scale-up fractions, mouse ADAMTS7; label = TAILS_id (gene symbol_StartAA).
Substance “GALNT2_31 (LAGGAGGGAGR; listed as Homo sapiens)” showed a TAILS_SMC_Scaleup_fxns_mATS7i of 2.03E+08.

In the case of “GSN_35 (SQAGAPQGR; listed as Homo sapiens)”, the TAILS_SMC_Scaleup_fxns_mATS7i is reported as 3.49E+07.

In turn, “HEG1_49 (GAGLELQLER; listed as Homo sapiens)” showed a TAILS_SMC_Scaleup_fxns_mATS7i of 9.60E+08.

Take “HLA−C_52 (VDDTQFVR; listed as Homo sapiens)”: the TAILS_SMC_Scaleup_fxns_mATS7i came to 1.21E+10.

“HSPG2_1937 (SSAGQQVAR; listed as Homo sapiens)” gave a TAILS_SMC_Scaleup_fxns_mATS7i of 1.34E+08.

For the substance “HSPG2_2688 (VADSGEYVCR; listed as Homo sapiens)”, the TAILS_SMC_Scaleup_fxns_mATS7i came out at 2.03E+07.

“HSPG2_3250 (SPLPWQHR; listed as Homo sapiens)” showed a TAILS_SMC_Scaleup_fxns_mATS7i of 1.36E+10.

For the substance “HSPG2_3542 (IAHVELADAGQYR; listed as Homo sapiens)”, the TAILS_SMC_Scaleup_fxns_mATS7i was found to be 1.56E+09.

The substance “HSPG2_3647 (QGKVKAFAHLQVPER; N-terminal pyroglutamate; listed as Homo sapiens)” showed a TAILS_SMC_Scaleup_fxns_mATS7i of 6.48E+08.

In the case of “HSPG2_3672 (SFLPLPTIKDAYR; listed as Homo sapiens)”, the TAILS_SMC_Scaleup_fxns_mATS7i was found to be 1.76E+09.

For “HSPG2_3813 (SSGFIGCVR; listed as Homo sapiens)”, the TAILS_SMC_Scaleup_fxns_mATS7i stood at 1.02E+08.
